Source: patent US20240067685A1, “HIDDEN ANTIBIOTICS IN THE HUMAN PROTEOME” (priority 2022, published 2024)
For part of these data: At least one peptide structure holds a part that was inferred or is arguable (an end, a ring closure or a residue). Some entries repeat one wording, which the source may state once for all of them. For part of these data: At least one structure is not confirmed: it was looked up by name or label, or the drawing left a doubt. Non-standard residues stand in square brackets, D forms with d. Residues, ends and D or L forms follow the SMILES beside them. No end group written: not given here.

Key:
[1] = test system: P. aeruginosa strain PAO1; experiment: Scarification skin infection mouse model; assay type: in vivo; conditions: four days post-treatment
[2] = test system: S. epidermidis ATCC 35984; conditions: conventional antimicrobial agents; Staphylococcus epidermidis ATCC 35984
Method: Antimicrobial activity. The antimicrobial activity of ApoB-derived encrypted peptides was assessed against a panel of skin pathogens, such as S. epidermidis ATCC 35984, S. aureus ATCC 12600, A. baumannii ATCC 17878, K. pneumoniae ATCC 700603, S. aureus MRSA (WK7-2), E. faecalis ATCC 29212 and P. aeruginosa PAO1 by using the broth microdilution method. ^20 Bacteria were grown to mid-logarithmic phase in MHB at 37° C. […] Following incubation over-night, each sample was diluted, plated on TSA, and incubated at 37° C. for 24 h to count the number of colonies. All experiments were performed in three independent replicates.

[3] = test system: A. baumannii ATCC 17878; experiment: Biofilm confocal laser scanning microscopy (CLSM); assay type: cell-based, Acinetobacter baumannii; conditions: initial biofilm attachment
[4] = test system: S. epidermidis ATCC 35984; experiment: Biofilm confocal laser scanning microscopy (CLSM); assay type: cell-based, Staphylococcus epidermidis
[5] = test system: HDF cells infected with A. baumannii ATCC 17878; experiment: RT-qPCR of IL-8 and IL-6 expression, HDF infected with A. baumannii; assay type: cell-based, human
[6] = test system: HDF stimulated with LPS from E. coli; experiment: RT-qPCR of IL-8 and IL-6 expression, HDF stimulated with LPS; assay type: cell-based, human; conditions: 5 or 20 μmol L^−1
[7] = test system: K. pneumoniae ATCC 700603; experiment: Killing kinetic studies; assay type: cell-based, Klebsiella pneumoniae; conditions: single agent at MIC
[8] = test system: HDFs infected with S. aureus ATCC 12600; experiment: RT-qPCR of IL-8 and IL-6 expression, HDFs infected with S. aureus; assay type: cell-based, human; conditions: peptide 10 μmol L^−1

| Molecule | effect on cell morphology in biofilm attachment [3] | effect on biofilm formation (cell death) [4] | anti-inflammatory or pro-inflammatory effects (IL-8 and IL-6 expression) [6] | time to completely kill bacterial cultures [7] [h] | further results |
| --- | --- | --- | --- | --- | --- |
| CC[C@@H](C)[C@@H](NC(=O)[C@H]1CCCN1C(=O)[C@@H](CO)NC(=O)[C@H]1CCCN1C(=O)[C@@H](CCCCN)NC(=O)[C@@H](CCCNC(=N)N)NC(=O)[C@H]1CCCN1C(=O)[C@H](NC(=O)[C@@H](CCCCN)NC(=O)[C@@H](CC(C)C)NC(=O)[C@@H](CC(C)C)NC(=O)[C@@H](CO)NC(=O)CN)C(C)C)C(=O)N[C@@H](C(=O)N[C@H](Cc1ccccc1)C(=O)N[C@H](CCCCN)C(=O)N[C@H](CC(C)C)C(=O)N[C@H](CCCCN)C(=O)NCC(=O)N1CCC[C@@H]1C(=O)N[C@H](CCCCN)C(=O)N[C@H](CC(C)C)C(=O)N[C@H](C)C(=O)N[C@@H](C(=O)N[C@H](Cc1c[nH]cn1)C(=O)N1CCC[C@@H]1C(=O)O)C(C)C)[C@H](C)CC [(ri)-r(P)ApoBS^Pro] (H-G[dS][dL][dL][dK][dV][dP][dR][dK][dP][dS][dP][dI][dI][dF][dK][dL][dK]G[dP][dK][dL][dA][dV][dH][dP]-OH; N-terminus and C-terminus assumed) | – | – | – | – | reduction of bacterial loads ([1]; 20 μmol L^−1): ~3 orders of magnitude; reduction of bacterial counts ([1]; 50 μmol L^−1): 3 orders of magnitude; effect on P. aeruginosa infections ([1]; concentrations higher than 100 μmol L^−1): completely eradicated; reduction of P. aeruginosa CFU counts ([1]; single dose 200 μmol L^−1): completely sterilized the infection |
| CCC[C@@H]1C[C@@H](C(=O)N[C@@H]([C@H]2O[C@H](SC)[C@H](O)[C@@H](O)[C@H]2O)[C@H](C)Cl)N(C)C1 [Clindamycin] | – | – | – | – | MIC values [2]: Resistant |
| PHVALKAGKLKFIIPSPKRPVKLLSGGNTLHLVSTTKT [r(P)ApoBL^Ala] | triggered cell filamentation | inducing cell death | did not display any anti-inflammatory or pro-inflammatory effects | – | expression levels of IL-8 and IL-6 ([5]; peptide at 5 μmol L^−1): increase the expression levels of IL-8 and IL-6 |
| PHVALKPGKLKFIIPSPKRPVKLLSG [r(P)ApoBS^Pro] | triggered cell filamentation | – | did not display any anti-inflammatory or pro-inflammatory effects | 3 | inflammatory response (IL-8 and IL-6 expression) [8]: reduced the inflammatory response; expression levels of IL-8 and IL-6 ([5]; peptide at 20 μmol L^−1): increase the expression levels of IL-8 and IL-6 |
| PHVALKPGKLKFIIPSPKRPVKLLSGGNTLHLVSTTKT [r(P)ApoBL^Pro] | – | inducing cell death | did not display any anti-inflammatory or pro-inflammatory effects | 1 | biovolume reduction compared to the untreated control [3]: 3 fold |
